Test results taken from article PMC12403265.
No constants are given. Whether binding was seen depends on the method and setting. In cells and extracts the contact can be indirect. A result given as binding can be weak or reduced; the word gives no strength.

Molecular target: DNAH10 (dynein axonemal heavy chain 10), mouse (mouse (endogenous in lung tissue))
Assay: co-IP; 3 µg antibody (rabbit IgG as control) on Protein A/G magnetic beads; extracted proteins from mouse lung tissues, overnight at 4 °C; 50 mM Tris, 150 mM NaCl, 0.3% Tween 20, pH 7.5; immunoblot

B1: CFAP57, mouse (protein, UniProt Q9D180 1-1249)
chain: MSTVVAQALHVFGLRPHVTNNVFFFDEQIIIFPSGNHCVKYNIDQKWQKFIAGSDKSQGMLALAISPNRRYLAISETVQEKPAVTIYELSSIPCRKRKVLNNFDFQVQKFTSMAFSPDSKYLLTQTSPPDSNLVYWLWEKQKVMAIIKADSQNNPIYQVSISSQDNSQVCITGSGVFKLLRFAEGTLKQINFQRGESSNYLAHAWVSEDRVIVGTDTGKLFLFESGDQRWETSIMVKESTSSRSLEVIQESESLIEFPPLSSPVSSVERMDITTNTQQQAMPQVFAIAAYSKGFACSAGPGRVLLFEKVEEKDFYRESREIRIPTDQQSNDPSQSDKQDVLCLCFSPSEETLIASTNKNQLYSITMSLTEISKGEAAHFEYLLYPLHSASITGLDTCIRKPLIATCSLDRSVRIWNYESNTLELYKEYQEEAYTVSLHPSGHYIVVGFADKLRLMNLLIDDIRPFKEYSVRGCKECSFSNGGHLFAAVNGNVIHIFTTTSLENINILKGHTGKIRSLVWNLDDSKLVSAGTDGAVYEWNLSTGKRETECVLKSCSYNSVTTSPDAKVIFAVGSDQTLKEISDSLILREIPAFDVIYTSITISHSGRMIFVGTSVGTIRAMKYPLSLQKEYNEYQAHAGPVMKMLLTFDDQFLLTVGEDGCLFTWKVFDKDGRGIKREREVGFAEEVLVTKTDMEEKAQIMLELKTRVEELKMENEYQLRLKDMNYTEKIKELTDKFIQEMESLKTKNQVLKTEKEKQDISHRERLEELVDKQTRELQDLECCNNQKLLLEYEKYQELQLKSQRMQEEYEKQLRDNDETKSQALEELTEFYEAKLQEKTGLLEEAQEDVRQQLREFEETKKQIEEDEDREIQDIKTKYERKLRDEKESNLRLKGETGIMRKKFSSLQKEIEERTNDIELLKSEQMKLQGIIRSLEKDIQGLKREIQERDETIQDKEKRIYDLKKKNQELEKFKFVLDYKIKELKKQIEPRENEIKVMKEQIQEMEAELERFHKQNTQLELNITELLQKLRATDQEMRKEQQKERDLEALVRRFKTDLHNCVAYIQEPGLLKEKIRGLFEKYVQRADMVEIAGLNSDLQQEYARQREHLERNLATLKKKVIKEGELHRTDYVRIMQENVSLIKEINELRRELKLTRSQIYDLESALKVSKKTRSQEVPESVISKDVVGSTSTMRLNEQEETGRIIEMQRLEIRRLRDQIQEQEQVPGFHTIAGVRLPSIVDSDVDFEVHTK
  binding: binds
